Measurements from PubChem BioAssay AID1487 (National Center for Advancing Translational Sciences (NCATS), 2009).
The list shows a part of the results. Shown are side measurements of this screen, not its main read-out; they come without a call. The list favours compounds with an active or inconclusive main result. Potencies come from curve fits of mixed quality, noted in brackets.

Test: qHTS Assay for Modulators of Lamin A Splicing
Conditions: HeLa LMNA splicing GFP/RFP minigene ratio, 48 h
Procedure, shortened: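 S3 HeLa cells stably expressing lamin A-EGFP splicing minigene plus DsRed2, 600 cells/well, 48 h compound exposure at 37C. Laser-scanning cytometry; analysed as GFP (500-530 nm)/RFP (575-640 nm) total intensity ratio; 0.5% DMSO vehicle.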

[1] = measured here: GFP splicing reporter channel
[2] = measured here: RFP viability control channel

| SMILES | AC50 [1] | AC50 [2] |
| --- | --- | --- |
| CCCCOc1ccc(-c2cn3ccccc3n2)cc1[N+](=O)[O-] | 31.6 µM [rising, single point] | 31.6 µM [rising, single point] |
| Cc1ccc(-c2ccc(/C=N\NC(=O)C3C(=O)NCC3c3ccccc3)o2)cc1Cl (configuration not stated) | 35.5 µM [falling, single point] | 35.5 µM [falling, single point] |
| c1ccc(COc2ccc(OCCCn3cncn3)cc2)cc1 | – | 11.2 µM [rising, single point] |
| Cc1nn(Cc2ccc(C(=O)N3CCOCC3)o2)c(C)c1Br | 22.4 µM [rising, single point] | 17.8 µM [rising, single point] |
| COC(=O)c1cccc(CSc2nc3ccccc3[nH]2)c1 | – | 11.2 µM [rising, partial curve] |
| Cn1cc(C(=O)c2ccc(Cl)cc2Cl)cc1C(=O)N/N=C(\N)COc1cccc(C(F)(F)F)c1 | – | 15.8 µM [rising, single point] |
| C=CCn1c(SCc2ccc(Cl)c(Cl)c2)nnc1C(CO)NC(=O)c1ccc(OC)cc1 (configuration not stated) | – | 12.6 µM [rising, single point] |
| Cc1ccccc1Oc1cc(-n2ncc(Cl)c(Cl)c2=O)ncn1 | 12.6 µM [falling, partial curve, poor fit] | 20 µM [falling, single point] |
| CCOc1ccc(NC2=C(OC)C(=O)c3ccccc3C2=O)cc1 | – | 15.8 µM [rising, single point] |
| Cc1ccc(S(=O)(=O)/N=C(\N)Nc2nc(C)c3cc(C)c(C)cc3n2)cc1 | – | 22.4 µM [rising, single point] |
| COc1ccc(-c2cc(C(F)(F)F)nc(SCC(=O)N(C)Cc3cnn(C)c3C)n2)cc1OC | – | 2.82 µM [rising, full curve] |
| CCCCC(=O)OC1CCC2C3CCc4cc(O)ccc4C3CC[C@]12C (some centres not stated) | 10 µM [falling, partial curve] | 11.2 µM [falling, partial curve, poor fit] |
| Cc1ccccc1C(=O)Nc1nc(-c2ccc(Br)cc2)ns1 | 0.224 µM [rising, partial curve] | 22.4 µM [rising, partial curve, poor fit] |
| c1ccc(COn2c(-c3ccccc3)nc3c2CCc2nonc2-3)cc1 | – | 35.5 µM [rising, single point] |
| CC(C)NC(=O)C1CCC(Cn2c(=O)c3sccc3n(CC(=O)Nc3ccccc3)c2=O)CC1 (configuration not stated) | – | 17.8 µM [falling, single point] |
| COC(=O)CCN(C1CCCCC1)S(=O)(=O)c1ccc(S(=O)(=O)NC2CCCCC2)cc1 | 3.98 µM [falling, single point] | 3.16 µM [falling, single point] |
| CC(C)Oc1ccc(CNC(=O)C2CCN(C(=O)N3CC(C)Oc4ccccc43)CC2)cc1 (configuration not stated) | – | 6.31 µM [falling, partial curve, poor fit] |
| CC(=O)N1N=C(c2ccccc2)CC1c1cn(Cc2ccccc2)c2ccccc12 (configuration not stated) | 17.8 µM [rising, single point] | 17.8 µM [rising, partial curve, poor fit] |
| CCCCOc1ccc(Cc2c(Cl)nc(SC)nc2N2CCOCC2)cc1 | – | 12.6 µM [rising, partial curve] |
| O=c1c(-c2ccc(Cl)cc2)cnc2n1CCS2 | 0.0316 µM [falling, full curve, poor fit] | – |
| COCCCNC(=O)c1ccc2c(c1)nc1n2CCCCC1 | 1.58 µM [rising, full curve] | 2.82 µM [rising, full curve] |
| Cc1ccc2nc(N/N=C/c3ccccc3F)nc(-c3ccccc3)c2c1 | – | 22.4 µM [rising, partial curve, poor fit] |
| CCOC(=O)CN1C(=O)N[C@@H](c2cccc(C(F)(F)F)c2)[C@H](C(=O)OC)[C@H]1C | 0.000891 µM [rising, full curve, poor fit] | – |
| COc1ccc(CNCCC(c2ccc(F)cc2)c2ccc(OC)cc2)cc1 (configuration not stated) | – | 12.6 µM [rising, single point] |
| Oc1c(C(c2ccccc2Cl)N2CCN(Cc3ccccc3)CC2)sc2nc(-c3ccco3)nn12 (configuration not stated) | 0.355 µM [falling, full curve, poor fit] | – |
| Cc1cc(C)n(CC(=O)N/N=C/c2cc([N+](=O)[O-])ccc2O)n1 | – | 1.12 µM [rising, full curve, poor fit] |
| O=C(CCCCn1c(=O)c2ccccc2n(Cc2ccccc2)c1=O)NC1CCN(Cc2ccccc2)CC1 | 17.8 µM [falling, partial curve, poor fit] | 14.1 µM [falling, partial curve, poor fit] |

| SMILES | AC50 [1] | AC50 [2] |
| --- | --- | --- |
| COC(=O)c1cccc(NS(=O)(=O)c2ccc(OC)cc2)c1C | – | 5.01 µM [rising, partial curve] |
| Cc1sc2nc(SCC(=O)NCc3cccs3)[nH]c(=O)c2c1C | – | 0.178 µM [rising, full curve, poor fit] |
| O=C(O)Cc1sc(N/N=C\c2ccccc2)nc1-c1ccccc1 | 10 µM [rising, partial curve] | 10 µM [rising, partial curve] |
| CNC(=S)N1CCN(C(c2ccccc2)c2ccccc2)CC1 | 0.0447 µM [falling, full curve, poor fit] | 0.0447 µM [falling, full curve] |
| COCCCNCCCCOc1ccc(OCc2ccccc2)cc1 | 28.2 µM [falling, partial curve, poor fit] | 35.5 µM [falling, partial curve, poor fit] |
| Cc1ccccc1NC(=O)CSc1ccsc1[N+](=O)[O-] | – | 15.8 µM [rising, partial curve, poor fit] |
| CCc1cc(C(=O)c2ccc(C)cc2)c(NC(=O)CCl)s1 | 20 µM [falling, partial curve, poor fit] | 35.5 µM [falling, single point] |
| C/C(=N\Nc1nc(Cl)c(Cl)cc1Cl)c1ccc(S(=O)(=O)NCc2ccco2)cc1 | 11.2 µM [rising, partial curve] | 11.2 µM [rising, partial curve] |
| CC(=NCc1cccc(Cl)c1)c1nc(-c2ccco2)oc1O | 10 µM [rising, partial curve, poor fit] | 11.2 µM [rising, partial curve] |
| O=C1OCC2=C1C(c1ccc3c(c1)OCO3)Sc1ccccc1N2 (configuration not stated) | – | 15.8 µM [rising, single point] |
| N#Cc1ccc(CSc2nnc(NC(=O)C3CC(=O)N(c4ccc5c(c4)OCCO5)C3)s2)cc1 (configuration not stated) | 22.4 µM [rising, single point] | 35.5 µM [rising, single point] |
| COCCn1c(=NC(=O)CSCC(=O)NC2CCCCC2)sc2cc(OC)ccc21 | – | 12.6 µM [rising, partial curve, poor fit] |
| Cc1ccc(Cn2cnc3sc4c(c3c2=O)CCC4)c(C)c1 | 31.6 µM [rising, single point] | 28.2 µM [rising, single point] |
| CC(=O)c1c(C)[nH]c(C(=O)Nc2ccc(Cl)c(S(=O)(=O)N(C)C)c2)c1C | – | 6.31 µM [rising, full curve] |
| COc1ccc(NS(=O)(=O)c2ccc(NC(=O)C3CCCO3)cc2)cc1 (configuration not stated) | – | 25.1 µM [rising, partial curve] |
| CCCCOc1ccccc1C1CC(=O)NC2=C1C(=O)CCC2 (configuration not stated) | 2.82 µM [falling, full curve] | 3.16 µM [falling, full curve] |
| COc1ccccc1/C=C(/C#N)C(=O)O | – | 2.82 µM [rising, single point] |
| CN(C)S(=O)(=O)c1ccc(C(=O)NCc2ccc3[nH]c4c(c3c2)CCCC4)cc1 | – | 12.6 µM [rising, single point] |
| O=C(Nc1ccc2c(c1)OCO2)c1ccc(CN2CCOCC2)cc1 | – | 25.1 µM [rising, single point] |
| Cc1ccc(C)c(NC(=O)c2cc(S(=O)(=O)NCCc3ccccc3)ccc2F)c1 | 0.01 µM [falling, full curve] | – |
| COc1cccc(C(=O)Nc2c(C)nn(-c3ccccc3)c2C)c1 | 0.0126 µM [falling, full curve] | 0.0126 µM [falling, full curve, poor fit] |
| O=C(Oc1c(CN2CCOCC2)cc(Cl)c2cccnc12)c1ccc(F)cc1 | – | 31.6 µM [rising, single point] |
| O=C(O)CC1(CC(=O)Nc2cc3ccccc3cn2)CCCCC1 | 35.5 µM [falling, single point] | – |
| Cc1ccc(S(=O)(=O)CCC(=O)Nc2cccc(C)c2)cc1 | 10 µM [rising, partial curve] | – |
| CN(C)c1ccc(-c2nccc(NCCN3CCOCC3)n2)cc1 | 14.1 µM [rising, single point] | 35.5 µM [rising, single point] |
| COc1ccc(C(=O)/C(C#N)=N/Nc2ccc([N+](=O)[O-])cc2)cc1 | 6.31 µM [falling, partial curve, poor fit] | 12.6 µM [falling, single point] |
| CCc1cnc2c(c1SCc1c(F)cccc1Cl)c(=O)n(C)c(=O)n2C | 0.0562 µM [rising, full curve, poor fit] | 2.51 µM [rising, partial curve] |

Individual results from the results shown:
Entry for COCCn1c(=NC(=O)CSCC(=O)NC2CCCCC2)sc2cc(OC)ccc21 under AC50 [2]: 12.6 µM [rising, partial curve, poor fit]
Entry for Cc1ccc(S(=O)(=O)CCC(=O)Nc2cccc(C)c2)cc1 under AC50 [1]: 10 µM [rising, partial curve]
